PubChem BioAssay AID1224830 | NIAID | 2016
The deposit covers about 18,000 reagents; this is a random part of them. About 2,900 of all reagents (16%) were called active. 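Calls are made per well; low scores hint the gene aids the LPS response, high scores that it dampens it.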 Repeated entries: four replicate wells of each siRNA pool. Reagent sequences are not shown.

Screen: 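Regulators of TLR4 signalling towards TNF-alpha in macrophage-like cells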 (primary screen)
Cell system: human THP-1 monocytic leukaemia cells, TNF dual-luciferase reporter clone, PMA-differentiated to macrophage-like cells
Knock-down reagent: siRNA pool against human genes, 50 nM
Timing: LPS for 4 h, given about 3 days after siRNA transfection
Conditions: bacterial LPS (TLR4 ligand), 10 ng/ml
Read-out: 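TNF firefly reporter luminescence divided by renilla, normalised to the plate median, then turned into a robust z-score for each replicate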
Direction: TNF reporter robust z-score: higher = stronger TNF reporter response to LPS
Call rule: 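a well is active when its z-score exceeds 2.8 or falls below -1.5; control wells carry no call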

| target | PubChem SID | TNF reporter robust z-score | call |
| --- | --- | --- | --- |
| UBB (GeneID 7314) | SID315452031 | -2.02 | active |
| UBB (GeneID 7314) | SID315452031 | -1.9 | active |
| UBB (GeneID 7314) | SID315452031 | -0.94 | inactive |
| UBB (GeneID 7314) | SID315452031 | -1.44 | inactive |
| HS3ST1 (GeneID 9957) | SID315453707 | -0.62 | inactive |
| HS3ST1 (GeneID 9957) | SID315453707 | 0.61 | inactive |
| HS3ST1 (GeneID 9957) | SID315453707 | -0.7 | inactive |
| HS3ST1 (GeneID 9957) | SID315453707 | -0.35 | inactive |
| LARS2 (GeneID 23395) | SID315455209 | -0.65 | inactive |
| LARS2 (GeneID 23395) | SID315455209 | -0.42 | inactive |
| LARS2 (GeneID 23395) | SID315455209 | 2.04 | inactive |
| LARS2 (GeneID 23395) | SID315455209 | -0.18 | inactive |
| REEP6 (GeneID 92840) | SID315461039 | 1.89 | inactive |
| REEP6 (GeneID 92840) | SID315461039 | 2.94 | active |
| REEP6 (GeneID 92840) | SID315461039 | -0.74 | inactive |
| REEP6 (GeneID 92840) | SID315461039 | -0.19 | inactive |
| MRPL40 (GeneID 64976) | SID315459060 | -1.53 | active |
| MRPL40 (GeneID 64976) | SID315459060 | -0.87 | inactive |
| MRPL40 (GeneID 64976) | SID315459060 | -1 | inactive |
| MRPL40 (GeneID 64976) | SID315459060 | -0.76 | inactive |
| COMMD8 (GeneID 54951) | SID315457292 | -0.81 | inactive |
| COMMD8 (GeneID 54951) | SID315457292 | 0.13 | inactive |
| COMMD8 (GeneID 54951) | SID315457292 | -0.38 | inactive |
| COMMD8 (GeneID 54951) | SID315457292 | -0.15 | inactive |
| RAB6C (GeneID 84084) | SID315460187 | 0.21 | inactive |
| RAB6C (GeneID 84084) | SID315460187 | 1.06 | inactive |
| RAB6C (GeneID 84084) | SID315460187 | -0.3 | inactive |
| RAB6C (GeneID 84084) | SID315460187 | 0.61 | inactive |
| HOXB7 (GeneID 3217) | SID315449282 | 0.38 | inactive |
| HOXB7 (GeneID 3217) | SID315449282 | -0.05 | inactive |
| HOXB7 (GeneID 3217) | SID315449282 | 0.33 | inactive |
| HOXB7 (GeneID 3217) | SID315449282 | 0 | inactive |
| OMP (GeneID 4975) | SID315450356 | 0.67 | inactive |
| OMP (GeneID 4975) | SID315450356 | -0.22 | inactive |
| OMP (GeneID 4975) | SID315450356 | 0.03 | inactive |
| OMP (GeneID 4975) | SID315450356 | 2.08 | inactive |
| ZNF85 (GeneID 7639) | SID315452233 | -2.38 | active |
| ZNF85 (GeneID 7639) | SID315452233 | -2.21 | active |
| ZNF85 (GeneID 7639) | SID315452233 | -2.05 | active |
| ZNF85 (GeneID 7639) | SID315452233 | -2.14 | active |
| PHYKPL (GeneID 85007) | SID315460633 | -0.65 | inactive |
| PHYKPL (GeneID 85007) | SID315460633 | 0.13 | inactive |
| PHYKPL (GeneID 85007) | SID315460633 | -0.22 | inactive |
| PHYKPL (GeneID 85007) | SID315460633 | 0.8 | inactive |
| LYRM2 (GeneID 57226) | SID315458344 | 0.09 | inactive |
| LYRM2 (GeneID 57226) | SID315458344 | 1.3 | inactive |
| LYRM2 (GeneID 57226) | SID315458344 | 0 | inactive |
| METTL13 (GeneID 51603) | SID315456801 | 1.3 | inactive |
| METTL13 (GeneID 51603) | SID315456801 | 0.15 | inactive |
| METTL13 (GeneID 51603) | SID315456801 | 0.07 | inactive |
| METTL13 (GeneID 51603) | SID315456801 | 0.87 | inactive |
| RAB24 (GeneID 53917) | SID315456944 | -1.36 | inactive |
| RAB24 (GeneID 53917) | SID315456944 | 0.21 | inactive |
| RAB24 (GeneID 53917) | SID315456944 | -0.18 | inactive |
| RAB24 (GeneID 53917) | SID315456944 | -0.26 | inactive |
| MRPL22 (GeneID 29093) | SID315456134 | 1.74 | inactive |
| MRPL22 (GeneID 29093) | SID315456134 | -0.44 | inactive |
| MRPL22 (GeneID 29093) | SID315456134 | 0.79 | inactive |
| MRPL22 (GeneID 29093) | SID315456134 | 3.11 | active |
| FBXL12 (GeneID 54850) | SID315457206 | 2.34 | inactive |
| FBXL12 (GeneID 54850) | SID315457206 | 1.17 | inactive |
| FBXL12 (GeneID 54850) | SID315457206 | -0.36 | inactive |
| FBXL12 (GeneID 54850) | SID315457206 | 0.35 | inactive |
| IER3IP1 (GeneID 51124) | SID315456491 | -1.11 | inactive |
| IER3IP1 (GeneID 51124) | SID315456491 | -0.49 | inactive |
| IER3IP1 (GeneID 51124) | SID315456491 | -0.08 | inactive |
| IER3IP1 (GeneID 51124) | SID315456491 | 0.29 | inactive |
| TCHP (GeneID 84260) | SID315460273 | 0.39 | inactive |
| TCHP (GeneID 84260) | SID315460273 | -0.03 | inactive |
| TCHP (GeneID 84260) | SID315460273 | 0.5 | inactive |
| TCHP (GeneID 84260) | SID315460273 | 1.37 | inactive |
| SLC6A16 (GeneID 28968) | SID315456084 | -0.01 | inactive |
| SLC6A16 (GeneID 28968) | SID315456084 | -1.48 | inactive |
| SLC6A16 (GeneID 28968) | SID315456084 | -1.73 | active |
| SLC6A16 (GeneID 28968) | SID315456084 | -1.37 | inactive |
